# From the supplement of paper PMC8728848
# Some of the results follow.
# Assays:
# Experiment in all cases: glycan array binding signal (z-score within array); higher = stronger binding
# Conditions in all cases: glycan notation: IUPAC condensed, linker removed
# [1] = target: Fuc(a1-2)[GalNAc(a1-4)]Gal(b1-4)GlcNAc
# How it was run: (§1)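 Glycan array data came from 3228 arrays in the Consortium for Functional Glycomics database, and only arrays with an available protein sequence were kept. Glycan names were put into IUPAC-condensed notation, and columns mapping to the same glycan were averaged. The binding signal is a within-array Z-score, averaged across arrays of one protein sequence run at different concentrations or buffers and across linkers. A negative Z-score can be read as non-binding.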
# [2] = target: Fuc(a1-2)[GalNAc(b1-3)]Gal
# How it was run: as §1
# [3] = target: Fuc(a1-3)GlcNAc
# How it was run: as §1
# [4] = target: Fuc(a1-3)[Gal(b1-4)]Glc6S
# How it was run: as §1
# [5] = target: Fuc(a1-3)[Gal(b1-4)]GlcNAc
# How it was run: as §1
# [6] = target: Fuc(a1-3)[Gal(b1-4)]GlcNAc(b1-2)Man
# How it was run: as §1
# [7] = target: Fuc(a1-3)[Gal(b1-4)]GlcNAc(b1-2)Man(a1-3)[Fuc(a1-3)[Gal(b1-4)]GlcNAc(b1-2)Man(a1-6)]Man(b1-4)GlcNAc(b1-4)GlcNAc
# How it was run: as §1
# [8] = target: Fuc(a1-3)[Gal(b1-4)]GlcNAc(b1-2)Man(a1-3)[Fuc(a1-3)[Gal(b1-4)]GlcNAc(b1-2)Man(a1-6)]Man(b1-4)GlcNAc(b1-4)[Fuc(a1-6)]GlcNAc
# How it was run: as §1
# [9] = target: Fuc(a1-3)[Gal(b1-4)]GlcNAc(b1-3)Gal(b1-3)[Fuc(a1-4)]GlcNAc
# How it was run: as §1
# [10] = target: Fuc(a1-3)[Gal(b1-4)]GlcNAc(b1-3)Gal(b1-4)[Fuc(a1-3)]GlcNAc
# How it was run: as §1
# [11] = target: Fuc(a1-3)[Gal(b1-4)]GlcNAc(b1-3)Gal(b1-4)[Fuc(a1-3)]GlcNAc(b1-3)Gal(b1-4)[Fuc(a1-3)]GlcNAc
# How it was run: as §1
# [12] = target: Fuc(a1-3)[Gal(b1-4)]GlcNAc(b1-3)GalNAc
# How it was run: as §1
# [13] = target: Fuc(a1-3)[Gal(b1-4)]GlcNAc(b1-4)Gal(b1-4)[Fuc(a1-3)]GlcNAc
# How it was run: as §1
# [14] = target: Fuc(a1-3)[Gal(b1-4)]GlcNAc(b1-4)Gal(b1-4)[Fuc(a1-3)]GlcNAc(b1-4)Gal(b1-4)[Fuc(a1-3)]GlcNAc
# How it was run: as §1
# [15] = target: Fuc(a1-3)[Gal(b1-4)]GlcNAc(b1-6)GalNAc
# How it was run: as §1
# [16] = target: Fuc(a1-3)[Gal(b1-4)]GlcNAc(b1-6)[Gal(b1-3)GlcNAc(b1-3)]Gal(b1-4)Glc
# How it was run: as §1
# [17] = target: Fuc(a1-3)[Gal(b1-4)]GlcNAc6S
# How it was run: as §1
# [18] = target: Fuc(a1-3)[Gal3S(b1-4)]Glc
# How it was run: as §1
# [19] = target: Fuc(a1-3)[Gal3S(b1-4)]GlcNAc
# How it was run: as §1
# [20] = target: Fuc(a1-3)[Gal3S(b1-4)]GlcNAc6S
# How it was run: as §1
# [21] = target: Fuc(a1-3)[GalNAc(b1-4)]GlcNAc
# How it was run: as §1
# [22] = target: Fuc(a1-3)[GalNAc(b1-4)]GlcNAc6S
# How it was run: as §1
# [23] = target: Fuc(a1-4)GlcNAc
# How it was run: as §1
# [24] = target: Fuc(b1-3)GlcNAc
# How it was run: as §1
# [25] = target: Gal(a1-2)Gal
# How it was run: as §1
# [26] = target: Gal(a1-3)Gal
# How it was run: as §1
# [27] = target: Gal(a1-3)Gal(b1-3)GlcNAc
# How it was run: as §1
# [28] = target: Gal(a1-3)Gal(b1-3)GlcNAc(b1-2)Man
# How it was run: as §1
# [29] = target: Gal(a1-3)Gal(b1-3)GlcNAc(b1-2)Man(a1-3)[Gal(a1-3)Gal(b1-3)GlcNAc(b1-2)Man(a1-6)]Man(b1-4)GlcNAc(b1-4)GlcNAc
# How it was run: as §1
# [30] = target: Gal(a1-3)Gal(b1-3)GlcNAc(b1-3)GalNAc
# How it was run: as §1
# [31] = target: Gal(a1-3)Gal(b1-3)GlcNAc(b1-6)GalNAc
# How it was run: as §1
# [32] = target: Gal(a1-3)Gal(b1-3)[Fuc(a1-4)]GlcNAc(b1-2)Man(a1-3)[Gal(a1-3)Gal(b1-3)[Fuc(a1-4)]GlcNAc(b1-2)Man(a1-6)]Man(b1-4)GlcNAc(b1-4)GlcNAc
# How it was run: as §1
# [33] = target: Gal(a1-3)Gal(b1-4)Glc
# How it was run: as §1
# [34] = target: Gal(a1-3)Gal(b1-4)GlcNAc
# How it was run: as §1
# [35] = target: Gal(a1-3)Gal(b1-4)GlcNAc(b1-2)Man
# How it was run: as §1
# [36] = target: Gal(a1-3)Gal(b1-4)GlcNAc(b1-2)Man(a1-3)[Gal(a1-3)Gal(b1-4)GlcNAc(b1-2)Man(a1-6)]Man(b1-4)GlcNAc(b1-4)GlcNAc
# How it was run: as §1
# [37] = target: Gal(a1-3)Gal(b1-4)GlcNAc(b1-3)GalNAc
# How it was run: as §1
# [38] = target: Gal(a1-3)Gal(b1-4)GlcNAc(b1-6)GalNAc
# How it was run: as §1
# [39] = target: Gal(a1-3)Gal(b1-4)[Fuc(a1-3)]GlcNAc
# How it was run: as §1
# [40] = target: Gal(a1-3)Gal(b1-4)[Fuc(a1-3)]GlcNAc(b1-2)Man(a1-3)[Gal(a1-3)Gal(b1-4)[Fuc(a1-3)]GlcNAc(b1-2)Man(a1-6)]Man(b1-4)GlcNAc(b1-4)GlcNAc
# How it was run: as §1
# [41] = target: Gal(a1-3)GalNAc
# How it was run: as §1
# [42] = target: Gal(a1-3)[Gal(a1-4)]Gal(b1-4)GlcNAc
# How it was run: as §1
# [43] = target: Gal(a1-4)Gal(b1-3)GlcNAc(b1-2)Man(a1-3)[Gal(a1-4)Gal(b1-3)GlcNAc(b1-2)Man(a1-6)]Man(b1-4)GlcNAc(b1-4)GlcNAc
# How it was run: as §1
# [44] = target: Gal(a1-4)Gal(b1-4)Glc
# How it was run: as §1
# [45] = target: Gal(a1-4)Gal(b1-4)GlcNAc
# How it was run: as §1
binder,measurement,setting,value
"Endo180d1-D4 (Homo sapiens), Q9UBG0 (protein) MGPGRPAPAPWPRHLLRCVLLLGCLHLGRPGAPGDAALPEPNVFLIFSHGLQGCLEAQGGQVRVTPACNTSLPAQRWKWVSRNRLFNLGTMQCLGTGWPGTNTTASLGMYECDREALNLRWHCRTLGDQLSLLLGARTSNISKPGTLERGDQTRSGQWRIYGSEEDLCALPYHEVYTIQGNSHGKPCTIPFKYDNQWFHGCTSTGREDGHLWCATTQDYGKDERWGFCPIKSNDCETFWDKDQLTDSCYQFNFQSTLSWREAWASCEQQGADLLSITEIHEQTYINGLLTGYSSTLWIGLNDLDTSGGWQWSDNSPLKYLNWESDQPDNPSEENCGVIRTESSGGWQNRDCSIALPYVCKKKPNATAEPTPPDRWANVKVECEPSWQPFQGHCYRLQAEKRSWQESKKACLRGGGDLVSIHSMAELEFITKQIKQEVEELWIGLNDLKLQMNFEWSDGSLVSFTHWHPFEPNNFRDSLEDCVTIWGPEGRWNDSPCNQSLPSICKKAGQLSQGAAEEDHGCRKGWTWHSPSCYWLGEDQVTYSEARRLCTDHGSQLVTITNRFEQAFVSSLIYNWEGEYFWTALQDLNSTGSFFWLSGDEVMYTHWNRDQPGYSRGGCVALATGSAMGLWEVKNCTSFRARYICRQSLGTPVTPELPGPDPTPSLTGSCPQGWASDTKLRYCYKVFSSERLQDKKSWVQAQGACQELGAQLLSLASYEEEHFVANMLNKIFGESEPEIHEQHWFWIGLNRRDPRGGQSWRWSDGVGFSYHNFDRSRHDDDDIRGCAVLDLASLQWVAMQCDTQLDWICKIPRGTDVREPDDSPQGRREWLRFQEAEYKFFEHHSTWAQAQRICTWFQAELTSVHSQAELDFLSHNLQKFSRAQEQHWWIGLHTSESDGRFRWTDGSIINFISWAPGKPRPVGKDKKCVYMTASREDWGDQRCLTALPYICKRSNVTKETQPPDLPTTALGGCPSDWIQFLNKCFQVQGQEPQSRVKWSEAQFSCEQQEAQLVTITNPLEQAFITASLPNVTFDLWIGLHASQRDFQWVEQEPLMYANWAPGEPSGPSPAPSGNKPTSCAVVLHSPSAHFTGRWDDRSCTEETHGFICQKGTDPSLSPSPAALPPAPGTELSYLNGTFRLLQKPLRWHDALLLCESHNASLAYVPDPYTQAFLTQAARGLRTPLWIGLAGEEGSRRYSWVSEEPLNYVGWQDGEPQQPGGCTYVDVDGAWRTTSCDTKLQGAVCGVSSGPPPPRRISYHGSCPQGLADSAWIPFREHCYSFHMELLLGHKEARQRCQRAGGAVLSILDEMENVFVWEHLQSYEGQSRGAWLGMNFNPKGGTLVWQDNTAVNYSNWGPPGLGPSMLSHNSCYWIQSNSGLWRPGACTNITMGVVCKLPRAEQSSFSPSALPENPAALVVVLMAVLLLLALLTAALILYRRRQSIERGAFEGARYSRSSSSPTEATEKNILVSDMEMNEQQE",glycan array binding signal (z-score),[1],0.451
same,glycan array binding signal (z-score),[2],0.61
same,glycan array binding signal (z-score),[3],0.335
same,glycan array binding signal (z-score),[4],0.331
same,glycan array binding signal (z-score),[5],-0.373
same,glycan array binding signal (z-score),[6],-1.59
same,glycan array binding signal (z-score),[7],-0.277
same,glycan array binding signal (z-score),[8],1.1
same,glycan array binding signal (z-score),[9],0.241
same,glycan array binding signal (z-score),[10],0.229
same,glycan array binding signal (z-score),[11],0.366
same,glycan array binding signal (z-score),[12],0.291
same,glycan array binding signal (z-score),[13],-0.291
same,glycan array binding signal (z-score),[14],-0.146
same,glycan array binding signal (z-score),[15],-0.85
same,glycan array binding signal (z-score),[16],-0.571
same,glycan array binding signal (z-score),[17],-0.08
same,glycan array binding signal (z-score),[18],0.053
same,glycan array binding signal (z-score),[19],-0.348
same,glycan array binding signal (z-score),[20],0.23
same,glycan array binding signal (z-score),[21],0.1
same,glycan array binding signal (z-score),[22],-0.564
same,glycan array binding signal (z-score),[23],-0.559
same,glycan array binding signal (z-score),[24],-0.204
same,glycan array binding signal (z-score),[25],-0.141
same,glycan array binding signal (z-score),[26],-0.012
same,glycan array binding signal (z-score),[27],-0.062
same,glycan array binding signal (z-score),[28],0.453
same,glycan array binding signal (z-score),[29],0.858
same,glycan array binding signal (z-score),[30],0.03
same,glycan array binding signal (z-score),[31],0.29
same,glycan array binding signal (z-score),[32],0.975
same,glycan array binding signal (z-score),[33],0.291
same,glycan array binding signal (z-score),[34],-0.683
same,glycan array binding signal (z-score),[35],-0.49
same,glycan array binding signal (z-score),[36],0.04
same,glycan array binding signal (z-score),[37],0.184
same,glycan array binding signal (z-score),[38],-0.505
same,glycan array binding signal (z-score),[39],-0.102
same,glycan array binding signal (z-score),[40],-0.306
same,glycan array binding signal (z-score),[41],-0.458
same,glycan array binding signal (z-score),[42],0.096
same,glycan array binding signal (z-score),[43],-0.019
same,glycan array binding signal (z-score),[44],0.385
same,glycan array binding signal (z-score),[45],0.072

# Reprinted at random: two records from the list.
binder,measurement,setting,value
"Endo180d1-D4 (Homo sapiens), Q9UBG0 (protein) MGPGRPAPAPWPRHLLRCVLLLGCLHLGRPGAPGDAALPEPNVFLIFSHGLQGCLEAQGGQVRVTPACNTSLPAQRWKWVSRNRLFNLGTMQCLGTGWPGTNTTASLGMYECDREALNLRWHCRTLGDQLSLLLGARTSNISKPGTLERGDQTRSGQWRIYGSEEDLCALPYHEVYTIQGNSHGKPCTIPFKYDNQWFHGCTSTGREDGHLWCATTQDYGKDERWGFCPIKSNDCETFWDKDQLTDSCYQFNFQSTLSWREAWASCEQQGADLLSITEIHEQTYINGLLTGYSSTLWIGLNDLDTSGGWQWSDNSPLKYLNWESDQPDNPSEENCGVIRTESSGGWQNRDCSIALPYVCKKKPNATAEPTPPDRWANVKVECEPSWQPFQGHCYRLQAEKRSWQESKKACLRGGGDLVSIHSMAELEFITKQIKQEVEELWIGLNDLKLQMNFEWSDGSLVSFTHWHPFEPNNFRDSLEDCVTIWGPEGRWNDSPCNQSLPSICKKAGQLSQGAAEEDHGCRKGWTWHSPSCYWLGEDQVTYSEARRLCTDHGSQLVTITNRFEQAFVSSLIYNWEGEYFWTALQDLNSTGSFFWLSGDEVMYTHWNRDQPGYSRGGCVALATGSAMGLWEVKNCTSFRARYICRQSLGTPVTPELPGPDPTPSLTGSCPQGWASDTKLRYCYKVFSSERLQDKKSWVQAQGACQELGAQLLSLASYEEEHFVANMLNKIFGESEPEIHEQHWFWIGLNRRDPRGGQSWRWSDGVGFSYHNFDRSRHDDDDIRGCAVLDLASLQWVAMQCDTQLDWICKIPRGTDVREPDDSPQGRREWLRFQEAEYKFFEHHSTWAQAQRICTWFQAELTSVHSQAELDFLSHNLQKFSRAQEQHWWIGLHTSESDGRFRWTDGSIINFISWAPGKPRPVGKDKKCVYMTASREDWGDQRCLTALPYICKRSNVTKETQPPDLPTTALGGCPSDWIQFLNKCFQVQGQEPQSRVKWSEAQFSCEQQEAQLVTITNPLEQAFITASLPNVTFDLWIGLHASQRDFQWVEQEPLMYANWAPGEPSGPSPAPSGNKPTSCAVVLHSPSAHFTGRWDDRSCTEETHGFICQKGTDPSLSPSPAALPPAPGTELSYLNGTFRLLQKPLRWHDALLLCESHNASLAYVPDPYTQAFLTQAARGLRTPLWIGLAGEEGSRRYSWVSEEPLNYVGWQDGEPQQPGGCTYVDVDGAWRTTSCDTKLQGAVCGVSSGPPPPRRISYHGSCPQGLADSAWIPFREHCYSFHMELLLGHKEARQRCQRAGGAVLSILDEMENVFVWEHLQSYEGQSRGAWLGMNFNPKGGTLVWQDNTAVNYSNWGPPGLGPSMLSHNSCYWIQSNSGLWRPGACTNITMGVVCKLPRAEQSSFSPSALPENPAALVVVLMAVLLLLALLTAALILYRRRQSIERGAFEGARYSRSSSSPTEATEKNILVSDMEMNEQQE",glycan array binding signal (z-score),[16],-0.571
same,glycan array binding signal (z-score),[11],0.366
